According to article PMC7862700:
The entries are a selection whose mix differs from that of the whole data set. At the low end of the ranking the order means little.

Biological target: T1, ELF3 (UniProt P78545)
T1 sequence: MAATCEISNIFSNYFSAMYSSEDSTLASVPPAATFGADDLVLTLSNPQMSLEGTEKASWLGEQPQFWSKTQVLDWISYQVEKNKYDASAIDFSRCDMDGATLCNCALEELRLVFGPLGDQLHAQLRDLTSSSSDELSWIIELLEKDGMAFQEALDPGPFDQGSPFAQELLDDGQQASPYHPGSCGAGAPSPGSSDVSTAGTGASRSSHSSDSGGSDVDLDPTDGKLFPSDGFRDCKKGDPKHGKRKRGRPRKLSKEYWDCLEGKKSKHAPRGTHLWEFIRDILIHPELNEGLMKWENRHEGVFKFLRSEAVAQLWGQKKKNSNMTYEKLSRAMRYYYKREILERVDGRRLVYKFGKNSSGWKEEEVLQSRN
Assay: DAPPL (digital affinity profiling via proximity ligation, sequencing)
Conditions: 10 mM Tris-HCl pH 7.5, 50 mM NaCl, 1 mM DTT, 4% glycerol, room temperature, 30 min; GST-TFs on glutathione beads, 16-mer random dsDNA library, 0.1% …; high values mean tight binding; double strand, one strand shown; scale: fold enrichment (6-mer frequency, TF over GST control)

Row | Sequence | binding signal
1 | CTTCTC | 1.47
2 | ACGCTT | 1.55
3 | CCGGAT | 3.19
4 | TTCCAT | 1.2
5 | GGATGC | 1.13
6 | CCCGTC | 1.03
7 | TGATCC | 1.1
8 | ATACAC | 1.16
9 | GATTAA | 0.958
10 | ACACAT | 1.28
11 | TCCTGA | 1.39
12 | GAAACT | 1.19
13 | GTAATT | 1.19
14 | CGTACG | 1.01
15 | TCATGG | 1.16
16 | CTGACA | 1.25
17 | AAATGC | 1.35
18 | TGGATT | 0.843
19 | GTGCAT | 1.03
20 | TACTAT | 1.2

Retrieved one by one from the list above, three records:
Row | Sequence | binding signal
8 | ATACAC | 1.16
11 | TCCTGA | 1.39
1 | CTTCTC | 1.47

Remaining list, next part

Row | Sequence | binding signal
21 | ATTTGC | 1.33
22 | CATTCG | 1.25
23 | TCATCA | 1.07
24 | TTAGGT | 1.15
25 | GTAACC | 0.973
26 | ATTCCA | 1.04
27 | GCCCGC | 0.993
28 | TGCACA | 1.26
29 | ATCAAA | 1.04
30 | TTGAAA | 1.13
31 | GACACT | 1
32 | TCTCGT | 1.65
33 | CGAATC | 1.11
34 | CGTAAC | 1.18
35 | TGCGCA | 1.06
36 | CCCTGT | 1.08
37 | CTGGGC | 0.819
38 | AGGATG | 0.943
39 | GGGAAA | 1.03
40 | TCCGAT | 1.23
